# From PubChem BioAssay AID2685 (National Center for Advancing Translational Sciences (NCATS), 2010)
# The other results are listed elsewhere or left out. Shown are side measurements of this screen, not its main read-out; they come without a call. Most of these compounds were active or inconclusive in the main read-out, so they are no random draw. Potencies come from curve fits of mixed quality, noted in brackets.
# Assay: qHTS Assay for Lipid Storage Modulators in Drosophila S3 Cells;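 for cell number change: cells counted by Cell Tracker Red CMTPX staining in the red channel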
# Conditions: BODIPY lipid droplet fluorescence, 18-24 h; for cell number change: measured here: cell count max response, cells fed with added oleic acid
# In short: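 Drosophila S3 cells loaded with oleic acid (400 uM, as added) and compounds at several concentrations; lipid droplets imaged by 488-nm laser-scanning cytometry, 500–530 nm intensity and object ratio to cell channel. Percent activity normalized to 20 uM Triacsin C.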
# [1] = measured here: lipid fluorescence (Fed channel) AC50, cells fed with added oleic acid
# [2] = measured here: cell number channel AC50, cells fed with added oleic acid
Compound,cell number change,AC50 [1],AC50 [2]
CCn1nnnc1-c1ccc(OC)c(S(=O)(=O)Nc2ccc(C(=O)OC)cc2)c1,3.37%,"20.6 µM [rising, partial curve]",–
O=S(=O)(c1ccc(Cl)cc1)c1cc(O)ccc1O,-32%,–,"0.00461 µM [falling, full curve, poor fit]"
Cc1cc(C)c(S(=O)(=O)Nc2ccncc2)cc1C,-24.7%,–,–
CCN1CCN(C(=O)CCCn2c(C)c3cnn(-c4ccccc4)c(=O)c3c2C)CC1,-2.48%,"29.1 µM [rising, single point]",–
CCc1cc2c(COC(=O)c3c(C)noc3C)cc(=O)oc2cc1O,-33.3%,"14.6 µM [falling, single point]","25.9 µM [falling, single point]"
CCCC(=O)Nc1ccc(NC(=O)C23CC4CC(CC(C4)C2)C3)cn1,-3.04%,"0.517 µM [falling, full curve]",–
Cn1c(=O)c2c(nc(Cl)n2CCOc2ccccc2)n(C)c1=O,-54%,"29.1 µM [falling, single point]","29.1 µM [falling, single point]"
Cc1cccn2c(=O)c(C=O)c(N3CCN(c4ccccc4)CC3)nc12,-15.4%,"6.51 µM [falling, partial curve, poor fit]",–
COc1ccccc1C(=O)Nc1ccc2c(c1)nc(CN1CCN(C(C)=O)CC1)n2C,–,–,"6.51 µM [rising, single point]"
N#Cc1nc(-c2cccs2)oc1N1CCN(c2ccccc2)CC1,–,–,"4.61 µM [rising, partial curve, poor fit]"
O=C(NCC1CCCO1)/C(=C\c1ccccc1F)NC(=O)c1ccccc1 (stereo not given),3.81%,"29.1 µM [falling, single point]",–
N=C(N)N=Nc1c(O)[nH]c2ccc(Br)cc12,-2.3%,–,–
CCc1ccc(-c2cc(C(=O)NCc3ccccn3)c3ccccc3n2)cc1,-6.24%,"2.59 µM [rising, full curve, poor fit]",–
CCn1c2ccccc2c2cc(CNCCCN3CCOCC3)ccc21,3.31%,"29.1 µM [rising, single point]",–
Fc1ccc(CSc2nsc(SCc3ccc(F)cc3)n2)cc1,17.4%,"29.1 µM [rising, single point]",–
CC(C)Oc1ccccc1C1Nc2ccccc2C(=O)N1c1ccc2c(c1)OCCO2 (stereo not given),-10.3%,–,"1.64 µM [rising, partial curve]"
Nc1c(Br)c(=O)[nH]c(=O)n1-c1ccccc1,26.1%,–,"1.84 µM [rising, full curve, poor fit]"
COc1ccc(/C=N/NC(=S)Nc2ccccc2)cc1COc1cccc(C)c1C,0.486%,"0.00461 µM [rising, full curve, poor fit]",–
Cc1ccccc1C(=O)N=c1ccn(-c2nc3ccccc3nc2NS(=O)(=O)c2ccc(F)cc2)cc1,15.3%,"0.731 µM [rising, single point]",–
O=C(O)c1ccc2c(c1)S(=O)(=O)N=C1CCCCCN12,–,"0.116 µM [falling, full curve, poor fit]",–

# An excerpt from above in order of heavy-atom count, low to high:
Compound,cell number change,AC50 [1],AC50 [2]
Nc1c(Br)c(=O)[nH]c(=O)n1-c1ccccc1,26.1%,–,"1.84 µM [rising, full curve, poor fit]"
O=S(=O)(c1ccc(Cl)cc1)c1cc(O)ccc1O,-32%,–,"0.00461 µM [falling, full curve, poor fit]"
Cc1cc(C)c(S(=O)(=O)Nc2ccncc2)cc1C,-24.7%,–,–
O=C(O)c1ccc2c(c1)S(=O)(=O)N=C1CCCCCN12,–,"0.116 µM [falling, full curve, poor fit]",–
Fc1ccc(CSc2nsc(SCc3ccc(F)cc3)n2)cc1,17.4%,"29.1 µM [rising, single point]",–
N#Cc1nc(-c2cccs2)oc1N1CCN(c2ccccc2)CC1,–,–,"4.61 µM [rising, partial curve, poor fit]"
CCCC(=O)Nc1ccc(NC(=O)C23CC4CC(CC(C4)C2)C3)cn1,-3.04%,"0.517 µM [falling, full curve]",–
Cc1cccn2c(=O)c(C=O)c(N3CCN(c4ccccc4)CC3)nc12,-15.4%,"6.51 µM [falling, partial curve, poor fit]",–
O=C(NCC1CCCO1)/C(=C\c1ccccc1F)NC(=O)c1ccccc1 (stereo not given),3.81%,"29.1 µM [falling, single point]",–
CCc1ccc(-c2cc(C(=O)NCc3ccccn3)c3ccccc3n2)cc1,-6.24%,"2.59 µM [rising, full curve, poor fit]",–
CCn1nnnc1-c1ccc(OC)c(S(=O)(=O)Nc2ccc(C(=O)OC)cc2)c1,3.37%,"20.6 µM [rising, partial curve]",–
COc1ccc(/C=N/NC(=S)Nc2ccccc2)cc1COc1cccc(C)c1C,0.486%,"0.00461 µM [rising, full curve, poor fit]",–
CC(C)Oc1ccccc1C1Nc2ccccc2C(=O)N1c1ccc2c(c1)OCCO2 (stereo not given),-10.3%,–,"1.64 µM [rising, partial curve]"
Cc1ccccc1C(=O)N=c1ccn(-c2nc3ccccc3nc2NS(=O)(=O)c2ccc(F)cc2)cc1,15.3%,"0.731 µM [rising, single point]",–

# Look-ups from above.
# AC50 [1], O=C(O)c1ccc2c(c1)S(=O)(=O)N=C1CCCCCN12 is entered as 0.116 µM [falling, full curve, poor fit]
# AC50 [1], COc1ccc(/C=N/NC(=S)Nc2ccccc2)cc1COc1cccc(C)c1C is entered as 0.00461 µM [rising, full curve, poor fit]

# (further entries)

Compound,cell number change,AC50 [1],AC50 [2]
CNC(=O)C1CCN(S(=O)(=O)c2c(C)noc2/C=C/N(C)C)CC1,33.2%,"0.58 µM [falling, single point]","7.31 µM [rising, partial curve, poor fit]"
CCN(c1ccccc1)S(=O)(=O)c1ccc(Oc2ccc(-n3ccnc3)cc2)nc1,28.5%,"4.61 µM [rising, full curve, poor fit]",–
CCC(C)NC(=O)c1cc(-c2ccccc2O)on1 (stereo not given),30.5%,"29.1 µM [rising, single point]","23.1 µM [rising, single point]"
COc1ccccc1Nc1nc(NCCO)c2ccccc2n1,62.8%,"5.17 µM [rising, single point]","1.64 µM [rising, full curve]"
CCOC(=O)c1ccc(NC(=S)N(CCN(C)C)C(C)c2ccncc2)cc1 (stereo not given),16.3%,–,–
COc1ccc(S(=O)(=O)N2CCCCCC2)cc1NC(=O)Cc1n[nH]c(=O)c2ccccc12,–,–,"6.51 µM [rising, single point]"
COC(=O)c1cc(NC(=O)CN(c2ccc3c(c2)OCO3)S(C)(=O)=O)ccc1Cl,40%,"2.06 µM [rising, partial curve]","25.9 µM [rising, single point]"
O=C(NC12CC3CC(CC(C3)C1)C2)N(Cc1ccccc1)Cc1ccncc1,126%,"18.4 µM [rising, partial curve]","23.1 µM [rising, partial curve, poor fit]"
CNC(=O)COC(=O)c1cc2c(C)nn(-c3ccc(F)cc3)c2s1,18.1%,"0.731 µM [rising, full curve]",–
CC(C)n1c(/N=C/c2c[nH]c3ccccc23)nc2ccccc21,-36.4%,"29.1 µM [falling, partial curve, poor fit]","0.058 µM [falling, full curve, poor fit]"
CCOC(=O)c1cc2c(ccn2C)n1CC(=O)N1C(C)CCCC1C (stereo not given),-62.1%,"6.51 µM [falling, full curve]","6.51 µM [falling, full curve]"
COc1ccc(CN2CCn3ncc(C(=O)Nc4cccc(C)c4)c3C2=O)cc1,1.98%,"0.731 µM [rising, full curve]",–
CCOc1ccc(CCNC(=O)c2nnn(CC(=O)Nc3ccc(OC)c(OC)c3)c2N)cc1OCC,20.2%,–,–
CC(NC(=O)c1cc(F)c(F)cc1Cl)C1CC2CCC1C2 (stereo not given),3.15%,"11.6 µM [falling, single point]",–
Cc1oc(-c2cccs2)nc1CS(=O)CC(=O)NC1CCCCCC1 (stereo not given),-4.17%,"0.00461 µM [rising, full curve, poor fit]",–
CC(=O)NS(=O)(=O)c1ccc(NC(=O)/C=C/c2ccco2)cc1,-38%,"0.082 µM [falling, full curve]","0.082 µM [falling, full curve, poor fit]"
CCN1C(c2ccccc2)=C(c2ccccc2)S/C1=C/C=C1\SC(=S)N(C)C1=O,-45.2%,"1.16 µM [falling, full curve]","2.31 µM [falling, full curve]"
CCOC(=O)Nc1ccc2c(CN(C)Cc3ccc(F)cc3)cc(=O)oc2c1,20.7%,"29.1 µM [falling, single point]",–
CCOC(=O)C1(O)CSc2nc3sc(C(=O)O)c(C)c3c(=O)n21 (stereo not given),-9.99%,"25.9 µM [falling, partial curve, poor fit]",–
O=[N+]([O-])c1cccnc1N1CCC(c2cc(-c3cccc(C(F)(F)F)c3)n[nH]2)CC1,-92.8%,–,"29.1 µM [falling, single point]"

Compound,cell number change,AC50 [1],AC50 [2]
CCc1ccc2[nH]c(C(=O)Nc3ccc(Br)c(C)n3)cc2c1,25%,–,–
Cc1ccc(Nc2nc(N)nc(CN3CCN(c4ccccc4)CC3)n2)cc1Cl,-12.2%,–,–
COc1cc([N+](=O)[O-])ccc1NC(=O)C[n+]1ccccc1C,17.1%,"29.1 µM [rising, single point]",–
CCNC(=O)Nc1cc(S(=O)(=O)Nc2ccc(OC)cc2)ccc1N1CCOCC1,-46.1%,"5.17 µM [falling, full curve]","10.3 µM [falling, partial curve, poor fit]"
O=C(CSc1nnc(-c2cccc(S(=O)(=O)N3CCCCC3)c2)o1)NCCC1=CCCCC1,56%,–,"5.8 µM [rising, full curve]"
CCOC(=O)N1CCN(CC(O)COc2ccccc2C(C)(C)C)CC1 (stereo not given),-7.91%,"0.58 µM [falling, full curve, poor fit]",–
COc1ccccc1CC(=O)NCc1ccc2c(c1)OCO2,–,"6.51 µM [rising, single point]","0.82 µM [rising, partial curve]"
COCCn1c(=NC(C)=O)sc2cc([N+](=O)[O-])ccc21,24%,"10.3 µM [rising, partial curve, poor fit]",–
CC(C)CCC[C@@H](C)[C@H]1CC[C@H]2[C@@H]3C(=O)C=C4C[C@@H](O)CC[C@]4(C)[C@H]3CC[C@]12C,-27.2%,–,–
Cc1nn(C)cc1CNCc1c(C(=O)N2CCCCC2)nc2c(C)cccn12,4.57%,"0.731 µM [falling, single point]","0.731 µM [falling, single point]"
COc1cc(OC)cc(C(=O)N2CCN(C(=O)c3cccnc3)CC2)c1,11.8%,"6.51 µM [rising, single point]",–
COc1ccccc1/C=C/C(=O)OCC(=O)NNC(=O)c1ccccc1,27%,"1.64 µM [rising, partial curve]",–
O=C(CCC1CCCC1)Nc1ccc([N+](=O)[O-])cn1,-7.57%,–,–
O=C(OCc1ccc(Cl)cc1)c1cnccn1,–,"3.66 µM [falling, full curve]",–
CC(=O)Nc1ccc(S(=O)(=O)NC(C)c2ccncc2)cc1 (stereo not given),-14.9%,"29.1 µM [falling, single point]",–
Cc1ccc(S(=O)(=O)NC(CC(C)C)C(=O)N2CCC(C)CC2)cc1 (stereo not given),19.3%,–,–
O=C(CN1CCC(Cc2ccccc2)CC1)NC(=O)NCc1ccco1,-15.3%,–,–
Cn1c(SCc2nc3ccccc3c(=O)[nH]2)nc2ccccc21,–,"0.116 µM [falling, single point]",–
NC(=O)C1CCN(C(=O)c2cnn(-c3ccccc3)c2NC(=O)c2cccc(F)c2)CC1,-2.38%,"0.146 µM [falling, full curve, poor fit]",–
